# From patent publication US20240262917A1, “ANTIBODIES AGAINST ALK AND METHODS OF USE THEREOF” (Dana-Farber Cancer Institute, Inc., priority 2021, published 2024)
# Results are given in words; binding and its absence hold for the method and conditions named.
# B1: Mouse monoclonal anti-ALK 8G7 (antibody, IgG1, V domains shown)
# VH: QVQLQQSGAELVRPGASVTLSCKASGYTFTDYEMHWVKQTPVHGLEWIGAIDPETGGSAYNQKFKAKAILTADRSSSTAYMELRSLTSEDSAVYYCTRTRYYGSSPAMDYWGQGTSVTVSS
# VL: DIQMTQTTSSLSASLGDRVTISCSASQGIGNYLNWYQQKPDGTVKLLIYYTSSLHSGVPSRFSGSGSGTDYSLTISNLEPEDIATYYCQQYSKLPYTFGGGTKLEIK
# Biological target: ALK-del MAM2 to 654 aa (human)
# Experiment: immunofluorescence on NIH3T3 cells expressing the mutant
binder,measurement,value
B1,binding,no binding (tested: 1:100 antibody dilution)
